Results are given in words; binding and its absence hold for the method and conditions named. Some entries that bind do so weakly or less than the wild type. Where a sequence is shown, tags or fusion partners need not be part of it.

The target of assay [1] is T1, purified GmRLK18-1 LRR domain (6x his-RHG1) (Glycine max).
T1 sequence: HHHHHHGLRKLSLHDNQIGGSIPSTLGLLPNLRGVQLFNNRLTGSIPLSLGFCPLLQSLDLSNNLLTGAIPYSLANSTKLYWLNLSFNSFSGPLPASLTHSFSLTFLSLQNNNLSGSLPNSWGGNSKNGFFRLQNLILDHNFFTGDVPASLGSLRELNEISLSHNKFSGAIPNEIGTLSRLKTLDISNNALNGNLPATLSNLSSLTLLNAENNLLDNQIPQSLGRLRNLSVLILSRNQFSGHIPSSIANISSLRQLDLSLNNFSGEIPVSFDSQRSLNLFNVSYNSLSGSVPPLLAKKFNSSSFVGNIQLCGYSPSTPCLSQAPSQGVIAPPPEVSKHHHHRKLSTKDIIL
Nature of the assay: Far-Western of root proteins at 42 dap (28 dai), Anti-His-HRP detection, Q-TOF MS-MS.

For assay [2] the target is unchanged. As to the kind of experiment: Far-Western of 2D gel separated soybean root proteins probed with the His tagged LRR domain, MS identification.

B1: methionine synthase [Glycine max] (enzyme)
chain: MASHIVGYPRMGPKRELKFALESFWDGKSSAEDLQKVSSDLRASIWKQMADAGIKYIPSNTFSHYDQVLDATATLGAVPPRYGWTGGEIGFDTYFSMARGNATVPAMEMTKWFDTNYHFIVPELGPDVNFTYASHKAVDEYKEAKALGVDTVPVLVGPVTYLLLSKPAKGVEKSFSLLSLLPKVLAVYKEVIADLKAAGASWIQFDEPTLVLDLESHKLQAFTDAYAELAPALSGLNVLVETYFADIPAEAYKTLTSLNGVTAYGFDLVRGTNTLDLIKGGFPSGKYLFAGVVDGRNIWANDLAASLTTLQGLEGIVGKDKLVVSTSSSLLHTAVDLVNETKLDDEIKSWLAFAAQKIVEVNALAKALSGHKDEAFFSGNAAALASRKSSPRVTNEAVQKAAAALKGSDHRRATNVSARLDSQQKKLNLPILPTTTIGSFPQTVELRRVRREFKANKISEEEYVKSIKEEIRKVVELQEELDIDVLVHGEPERNDMVEYFGEQLSGFAFTVNGWVQSYGSRCVKPPIIYGDVSRPKPMTVFWSSLAQSFTKRPMKGMLTGPVTILNWSFVRNDQPRSETTYQIALSIKDEVEDLEKAGITVIQIDEAALREGLPLRKSEQAHYLDWAVHAFRITNVGVQDTTQIHTHMCYSNFNDIIHSIIDMDADVITIENSRSDEKLLSVFREGVKYGAGIGPGVYDIHSPRIPPTEEIADRINKMLAVLEKNILWVNPDCGLKTRKYTEVKPALTNMVAAAKLIRNELAK
With B1, the binding entry in assay [1] and in assay [2] was “binds” in each case.

For the origin of these results see US20120192315A1, “RESISTANCE GENES AND PROTEINS ACTIVE AGAINST FUSARIUM ROOT ROTS, CYST NEMATODES AND SOYBEAN SUDDEN DEATH SYNDROME AND METHODS EMPLOYING SAME” (Southern Illinois University Carbondale, priority 2011, published 2012).
